Data published in the supplement of paper PMC6411743.
± gives the standard deviation of the averaged measurements. Only a part is listed here, and it is no random draw.

How the values were obtained:
Assay in all cases: NP40-soluble protein abundance relative to vehicle (solubility fold change) (ratio); higher = more soluble protein in presence of AMP-PNP
[1] = target: T1, UniProt Q96BZ9 and related entries
T1 sequence (whole entry): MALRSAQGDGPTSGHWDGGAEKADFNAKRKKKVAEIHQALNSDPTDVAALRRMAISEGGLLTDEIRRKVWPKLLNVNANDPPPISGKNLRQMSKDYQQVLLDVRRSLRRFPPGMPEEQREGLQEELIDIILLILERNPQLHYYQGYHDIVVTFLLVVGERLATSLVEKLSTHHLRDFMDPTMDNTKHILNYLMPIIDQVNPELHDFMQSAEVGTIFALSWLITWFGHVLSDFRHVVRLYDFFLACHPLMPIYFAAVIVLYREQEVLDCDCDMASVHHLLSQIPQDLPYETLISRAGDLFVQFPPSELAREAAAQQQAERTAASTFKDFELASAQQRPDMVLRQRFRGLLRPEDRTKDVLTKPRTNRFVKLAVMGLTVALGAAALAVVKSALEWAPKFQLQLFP
How it was run: (§1)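 Eight concentrations, 0.1 to 10 mM, were tested on Jurkat crude lysate for 10 min at room temperature and then 3 min at 37 °C, in three independent experiments. The lysate was solubilised with 0.8% NP40 and benzonase, ultracentrifuged, and the supernatant TMT-labelled for LC-MS/MS. Each value is the fold change against the detergent-processed vehicle in its own replicate, from vsn-normalised intensities.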

[2] = target: T2, UniProt Q96F46 and related entries
T2 sequence (whole entry): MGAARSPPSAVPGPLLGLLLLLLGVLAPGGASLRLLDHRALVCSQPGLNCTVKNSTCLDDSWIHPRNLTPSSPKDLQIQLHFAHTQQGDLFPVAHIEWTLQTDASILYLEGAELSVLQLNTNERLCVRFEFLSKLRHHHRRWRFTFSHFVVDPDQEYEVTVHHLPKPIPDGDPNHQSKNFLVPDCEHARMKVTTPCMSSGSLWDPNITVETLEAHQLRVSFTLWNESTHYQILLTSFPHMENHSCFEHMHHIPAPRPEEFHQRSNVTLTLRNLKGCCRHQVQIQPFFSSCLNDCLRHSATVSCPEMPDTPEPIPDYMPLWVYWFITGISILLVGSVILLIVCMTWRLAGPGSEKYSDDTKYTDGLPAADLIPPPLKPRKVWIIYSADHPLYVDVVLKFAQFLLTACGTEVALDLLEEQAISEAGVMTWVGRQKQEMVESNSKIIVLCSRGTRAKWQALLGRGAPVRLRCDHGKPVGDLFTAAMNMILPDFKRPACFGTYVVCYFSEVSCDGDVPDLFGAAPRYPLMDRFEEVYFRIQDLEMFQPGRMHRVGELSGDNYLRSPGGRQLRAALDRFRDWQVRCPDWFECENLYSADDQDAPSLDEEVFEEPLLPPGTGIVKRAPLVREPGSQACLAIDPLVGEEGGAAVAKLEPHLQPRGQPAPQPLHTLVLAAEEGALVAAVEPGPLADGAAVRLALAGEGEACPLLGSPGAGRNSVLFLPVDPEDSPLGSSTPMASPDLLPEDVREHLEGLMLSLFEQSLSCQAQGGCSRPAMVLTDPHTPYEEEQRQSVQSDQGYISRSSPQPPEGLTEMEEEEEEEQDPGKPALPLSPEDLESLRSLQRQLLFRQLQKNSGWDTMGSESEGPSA
How it was run: as §1

[3] = target: T3, UniProt Q96G25 and related entries
T3 sequence (whole entry): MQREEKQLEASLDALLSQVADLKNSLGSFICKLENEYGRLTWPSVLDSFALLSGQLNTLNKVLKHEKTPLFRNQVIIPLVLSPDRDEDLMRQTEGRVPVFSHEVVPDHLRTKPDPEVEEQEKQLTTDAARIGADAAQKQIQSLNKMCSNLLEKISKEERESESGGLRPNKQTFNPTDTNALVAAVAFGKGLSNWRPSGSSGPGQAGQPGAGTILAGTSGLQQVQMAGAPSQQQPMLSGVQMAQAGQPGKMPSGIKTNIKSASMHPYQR
How it was run: as §1

[4] = target: T4, UniProt Q96GS4
T4 sequence (whole entry): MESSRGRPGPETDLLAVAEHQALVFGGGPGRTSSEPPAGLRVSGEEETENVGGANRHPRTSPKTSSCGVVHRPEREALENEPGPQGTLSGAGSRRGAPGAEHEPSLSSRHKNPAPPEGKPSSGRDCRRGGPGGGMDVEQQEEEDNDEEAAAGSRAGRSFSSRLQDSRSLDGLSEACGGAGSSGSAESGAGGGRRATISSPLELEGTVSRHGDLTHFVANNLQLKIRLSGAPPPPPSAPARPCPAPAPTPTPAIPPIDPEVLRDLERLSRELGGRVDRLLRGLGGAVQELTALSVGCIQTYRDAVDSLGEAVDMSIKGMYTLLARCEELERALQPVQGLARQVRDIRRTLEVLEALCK
How it was run: as §1

[5] = target: T5, UniProt Q96I15 and related entries
T5 sequence (whole entry): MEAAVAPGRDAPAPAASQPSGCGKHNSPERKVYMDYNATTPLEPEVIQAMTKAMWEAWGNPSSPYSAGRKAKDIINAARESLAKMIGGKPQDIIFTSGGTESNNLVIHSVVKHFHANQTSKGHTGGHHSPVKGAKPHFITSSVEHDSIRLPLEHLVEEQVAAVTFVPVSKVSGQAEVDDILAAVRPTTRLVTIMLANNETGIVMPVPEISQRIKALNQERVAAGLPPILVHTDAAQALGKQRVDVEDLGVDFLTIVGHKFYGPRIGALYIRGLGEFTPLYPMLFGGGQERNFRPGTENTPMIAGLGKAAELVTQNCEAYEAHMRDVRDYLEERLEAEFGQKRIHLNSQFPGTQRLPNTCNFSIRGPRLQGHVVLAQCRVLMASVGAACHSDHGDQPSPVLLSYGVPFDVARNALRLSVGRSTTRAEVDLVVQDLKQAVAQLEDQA
How it was run: as §1

`Nc1ncnc2c1ncn2[C@@H]1O[C@H](COP(=O)(O)OP(=O)(O)NP(=O)(O)O)[C@@H](O)[C@H]1O` [adenylyl imidodiphosphate] showed an NP40-soluble protein abundance ([1]; concentration: 1mM) of 1.01 ± 0.032, an NP40-soluble protein abundance ([1]; concentration: 2mM) of 1.02 ± 0.037 and an NP40-soluble protein abundance ([1]; concentration: 4mM) of 1.02 ± 0.021. For the same compound, the NP40-soluble protein abundance ([1]; concentration: 6mM) was 1.02 ± 0.016, the NP40-soluble protein abundance ([1]; concentration: 8mM) was 1.01 ± 0.029 and the NP40-soluble protein abundance ([1]; concentration: 10mM) was 1.02 ± 0.021. The NP40-soluble protein abundance ([2]; concentration: 1mM) was 1 ± 0.015, the NP40-soluble protein abundance ([2]; concentration: 2mM) was 0.981 ± 0.03 and the NP40-soluble protein abundance ([2]; concentration: 4mM) was 1 ± 0.029. It also gave an NP40-soluble protein abundance ([2]; concentration: 6mM) of 0.98 ± 0.017, an NP40-soluble protein abundance ([2]; concentration: 8mM) of 0.966 ± 0.022 and an NP40-soluble protein abundance ([2]; concentration: 10mM) of 0.978 ± 0.011. It also gave an NP40-soluble protein abundance ([3]; concentration: 1mM) of 0.991 ± 0.021, an NP40-soluble protein abundance ([3]; concentration: 2mM) of 1.03 ± 0.065 and an NP40-soluble protein abundance ([3]; concentration: 4mM) of 1.01 ± 0.027. It also gave an NP40-soluble protein abundance ([3]; concentration: 6mM) of 0.965 ± 0.079, an NP40-soluble protein abundance ([3]; concentration: 8mM) of 0.957 ± 0.068 and an NP40-soluble protein abundance ([3]; concentration: 10mM) of 0.97 ± 0.03. It also gave an NP40-soluble protein abundance ([4]; concentration: 1mM) of 1 ± 0.031, an NP40-soluble protein abundance ([4]; concentration: 2mM) of 0.992 ± 0.015 and an NP40-soluble protein abundance ([4]; concentration: 4mM) of 1.02 ± 0.027. The NP40-soluble protein abundance ([4]; concentration: 6mM) was 0.9651 ± 0.0084, the NP40-soluble protein abundance ([4]; concentration: 8mM) was 0.978 ± 0.013 and the NP40-soluble protein abundance ([4]; concentration: 10mM) was 1 ± 0.013. The NP40-soluble protein abundance ([5]; concentration: 1mM) was 0.998 ± 0.018, the NP40-soluble protein abundance ([5]; concentration: 2mM) was 0.964 ± 0.011 and the NP40-soluble protein abundance ([5]; concentration: 4mM) was 0.982 ± 0.029. It also gave an NP40-soluble protein abundance ([5]; concentration: 6mM) of 0.978 ± 0.018, an NP40-soluble protein abundance ([5]; concentration: 8mM) of 0.988 ± 0.047 and an NP40-soluble protein abundance ([5]; concentration: 10mM) of 0.977 ± 0.031.
